According to the supplement of paper PMC10735217:
Structures can show the parent of a compound that is named as a salt. The list shows a part of the results. Repeats in this data set agree poorly, so a single value says little.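 In a drug-repurposing library screen, luminescence reads luciferase driven by eight TEAD-binding elements, stably integrated into human kidney-derived cells. Compounds scoring over five robust Z scores above the plate mean are called hits.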

Tested on: HEK293A TEAD-LUC reporter
Assay: TEAD-luciferase reporter activity (YAP activation), robust Z score vs plate; higher = stronger YAP/TEAD activation
Details: 24 h

| SMILES | TEAD-luciferase reporter activity (compound concentration: 200 nM) | TEAD-luciferase reporter activity (compound concentration: 2 uM) | TEAD-luciferase reporter activity (compound concentration: 10 uM) |
| --- | --- | --- | --- |
| C[C@H](CCC(=O)O)[C@H]1CC[C@H]2[C@@H]3[C@@H](O)C[C@@H]4C[C@H](O)CC[C@]4(C)[C@H]3CC[C@]12C | inactive: -1.19 | inactive: -1.32 | inactive: 0.61 |
| Cc1cc(C(=O)O)nn1Cc1cc(Br)ccc1OCc1ccc(Cl)cc1Cl | inactive: -1.57 | inactive: 0.0373 | inactive: 0.926 |
| CC(=O)N[C@@H](C=O)[C@@H](O)[C@H](O)[C@H](O)CO | inactive: -0.267 | inactive: -1.44 | inactive: -0.693 |
| CN1CCC(C(=O)N2CCCC3(Cc4ccccc4CN3C(=O)c3ccccc3)C2)CC1 (centres undefined) | inactive: -0.677 |  | inactive: -0.749 |
| NC[C@@H]1CC[C@H]1CN [Lobaplatin] | inactive: -1.69 |  | inactive: -1.72 |
| NC[C@@H]1CC[C@H]1CN |  | inactive: -0.313 |  |
| Cc1cccc(N(C)C(=S)Oc2ccc3ccccc3c2)c1 [Tolnaftate] |  | inactive: 2.86 |  |
| Cc1cccc(N(C)C(=S)Oc2ccc3ccccc3c2)c1 | inactive: 0.478 |  | inactive: -0.666 |
| CCOC(=O)c1cc(O)nc(O)n1 | inactive: -0.928 | inactive: -1.7 | inactive: -0.488 |
| COc1cc(NC(C)CCCN)c2ncccc2c1 (centres undefined) [primaquine, Liposome Co] |  | inactive: -2.47 |  |
| COc1cc(NC(C)CCCN)c2ncccc2c1 (centres undefined) [Primaquine Diphosphate63-45-6] | inactive: -3.38 |  | inactive: 0.268 |
| COC1=CC(=O)c2c(O)c3c(c(C)c2C1=O)C[C@@]1(O)[C@H](O[C@H]2CC[C@H](O[C@H]4C[C@@](C)(O)[C@H](OC(=O)c5c(C)ccc(C)c5O)[C@H](C)O4)[C@@H](C)O2)C(=O)/C(=C(/C)O)C(=O)[C@@]1(O)C3=O [Polyketomycin] | inactive: 0.239 | inactive: -0.764 | inactive: -0.356 |
| C[C@@H](O)[C@H](NC(=O)[C@H]1CCCN1C(=O)[C@@H](N)CCCCN)C(=O)O | inactive: 4.59 | inactive: -0.649 | inactive: 2.18 |
| O=C1C2C=C(c3ccccc3)CC1CCC2 (centres undefined) | inactive: -1.7 | inactive: -0.162 | inactive: -0.808 |
| COc1nccc(-c2c(-c3ccc(F)cc3)ncn2C2CCNCC2)n1 | inactive: -2.09 | inactive: -0.729 | inactive: -0.761 |
| COc1ccc([C@@H]2Cc3c(cccc3C(F)(F)F)N(CCN(C)C)C(=O)[C@@H]2OC(C)=O)cc1 | inactive: -1.14 | inactive: 0.715 | inactive: 0.25 |
| CCOC(=O)CCc1nsnc1OCC(O)CNC(C)C (centres undefined) | inactive: -0.773 | inactive: -0.695 | inactive: -0.997 |
| O=C(Cc1c(F)cccc1Cl)Nc1onc(-c2ccc(F)cc2)c1-c1ccncn1 | inactive: -1.18 | inactive: -1.18 | inactive: -1 |
| CCCCN1CCC(NC(=O)c2c[nH]c3ncccc23)CC1 | inactive: -1.11 | inactive: -2.46 | inactive: -2.17 |
| O=C1CCC[C@@H]2[C@H]3CCC[N+]4([O-])CCC[C@@H](CN12)[C@@H]34 (some centres undefined) [Oxymatrine] | inactive: 0.607 | inactive: -2.12 | inactive: 2.26 |
| Nc1cccc2c1CN(C1CCC(=O)NC1=O)C2=O (centres undefined) | inactive: -1.69 | inactive: -0.243 | inactive: 0.425 |
| CC(C)(C)OC(=O)N[C@@H](Cc1ccccc1)[C@H](O)CNC[C@@H](O)[C@H](Cc1ccccc1)NC(=O)OC(C)(C)C | inactive: -1.15 | inactive: 0.036 | inactive: 1.44 |
| CN(C)[C@@H]1C(=O)C(C(N)=O)=C(O)C2(O)C(=O)C3=C(O)c4c(O)ccc(Cl)c4[C@@H](O)[C@H]3C[C@@H]12 (some centres undefined) [Demeclocycline] | inactive: -0.844 |  | inactive: 1.05 |
| CN(C)[C@@H]1C(=O)C(C(N)=O)=C(O)C2(O)C(=O)C3=C(O)c4c(O)ccc(Cl)c4[C@@H](O)[C@H]3C[C@@H]12 (some centres undefined) [Demeclocycline (hydrochloride)] |  | inactive: -0.371 |  |

| SMILES | TEAD-luciferase reporter activity (compound concentration: 200 nM) | TEAD-luciferase reporter activity (compound concentration: 2 uM) | TEAD-luciferase reporter activity (compound concentration: 10 uM) |
| --- | --- | --- | --- |
| COc1cc(C(=S)N2CCOCC2)cc(OC)c1OC [tritiozine] | inactive: -0.0732 | inactive: -0.853 | inactive: 1.8 |
| CC(C)Cc1ccc(-c2nc(-c3ccc(CN4CC(C(=O)O)C4)c(F)c3)no2)cc1 [S1p receptor agonist 1] | inactive: 2.46 | inactive: -1.53 | inactive: 1.44 |
| NS(=O)(=O)c1ccc(NC(CC(c2ccccc2)S(=O)(=O)O)S(=O)(=O)O)cc1 (centres undefined) | inactive: -0.0857 | inactive: -0.339 | inactive: 0.95 |
| C/C=C(\C)C(=O)OC1[C@H](OC(C)=O)C2(CO)C(CC1(C)C)C1=CCC3C4(C)CCC(O[C@@H]5O[C@H](C(=O)O)[C@@H](O[C@@H]6O[C@H](CO)[C@@H](O)[C@H](O)[C@H]6O)[C@H](O)[C@H]5O[C@H]5O[C@H](CO)[C@@H](O)[C@H](O)[C@H]5O)[C@](C)(CO)C4CCC3(C)[C@]1(C)C[C@H]2O (some centres undefined) [Aescin] | inactive: -0.708 | inactive: -0.221 | inactive: -0.967 |
| C=CCNc1c(O)cc2c(O)c1C[C@@H](C)C[C@H](OC)[C@H](O)[C@@H](C)/C=C(\C)[C@H](OC(N)=O)[C@@H](OC)/C=C\C=C(/C)C(=O)N2 [retaspimycin] | inactive: -1.83 | inactive: -1.08 | inactive: -1.36 |
| O=C(O)c1ccccc1NC(=O)C12CC3CC(CC(C3)C1)C2 | inactive: -0.88 | inactive: 0.645 | inactive: -0.643 |
| CCCCCCCCCCCC[N+](C)(C)CC(=O)O | inactive: 0.414 | inactive: -1.31 | inactive: 1.41 |
| CCSc1nn(-c2ccc(OC)cc2)c(=O)c2c(N)scc12 | inactive: -0.576 | inactive: -0.473 | inactive: 0.715 |
| C=C(C)[C@@H]1CC[C@]2(C(=O)O)CC[C@]3(C)[C@H](CCC4[C@@]5(C)CC[C@H](OC(=O)CCC(=O)O)C(C)(C)C5CC[C@]43C)C12 (some centres undefined) | inactive: -1.09 | inactive: 0.524 | inactive: -0.457 |
| [Cl][Fe]([Cl])[Cl] [Ferric Chloride] | inactive: -0.31 |  | inactive: 0.0493 |
| CC(C)C[C@H](NC(=O)[C@@H](Cc1ccc2ccccc2c1)NC(=O)[C@H](Cc1ccc(O)cc1)NC(=O)[C@H](CO)NC(=O)[C@H](Cc1c[nH]c2ccccc12)NC(=O)[C@H](Cc1cnc[nH]1)NC(=O)[C@@H]1CCC(=O)N1)C(=O)N[C@@H](CCCNC(=N)N)C(=O)N1CCC[C@H]1C(=O)NCC(N)=O [Nafarelin] | inactive: -0.548 | inactive: -1.1 | inactive: 2.68 |
| C[C@@H](O)[C@H](c1ccc2c(c1)OCO2)N1CCOCC1 [Filenadol] | inactive: -1.22 | inactive: -1.35 | inactive: -0.79 |
| O=[N+]([O-])c1cc2c(ccc3cc(Br)ccc32)o1 | inactive: -1.3 | inactive: -1.49 | inactive: -1.11 |
| CC(C)NCC(O)COc1cccc2c1N(C(=O)c1cccnc1)CCC2 (centres undefined) [Nicainoprol] | inactive: -0.587 | inactive: 0.304 | inactive: -0.308 |
| OCCC#Cc1nc(-c2ccc(F)cc2)c(-c2ccncc2)n1CCCc1ccccc1 | inactive: -4.23 | inactive: -2.05 | inactive: 1.28 |
| N=C(NCCCCc1ccc(OCC(O)CO)cc1)NC(=O)c1nc(Cl)c(N)nc1N (centres undefined) | inactive: -0.795 | inactive: -1.17 | inactive: 1.66 |
| CC1=C2[C@H](/C=C(\C)C(=O)O)CC[C@@H](C)[C@H]2CC1 [Valerenic acid] | inactive: -0.489 | inactive: 0.378 | inactive: -0.213 |
| CCOC(=O)COc1ccc(/C(C)=N/OCc2sc(-c3ccc(C(F)(F)F)cc3)nc2C)cc1C | inactive: -1.16 | inactive: 1.31 | inactive: -0.428 |
| CC(=O)NCCC(=O)N[C@@H](Cc1cnc[nH]1)C(=O)O [N-Acetylcarnosine] | inactive: -1.04 | inactive: 0.169 | inactive: -0.24 |
| Cc1c(Cl)c(C)[n+]([O-])c(Cl)c1-c1noc(-c2cc(O)c(O)c([N+](=O)[O-])c2)n1 [opicapone] | inactive: 0.496 | inactive: -0.758 | inactive: -0.639 |
| O=C1CCC(c2ccc(-n3ccnc3)cc2)=NN1 [Imazodan] | inactive: 0.636 | inactive: -0.534 | inactive: 2.97 |
| CC(=O)N[C@@H](Cc1ccc(C(=N)N)cc1)C(=O)N[C@H](C(=O)N[C@@H](Cc1ccc[n+](C)c1)C(=O)N[C@@H](CC(C)C)C(=O)N1CCC[C@H]1C(N)=O)C1CCCCC1 | inactive: -0.56 | inactive: -0.201 | inactive: -0.318 |
| C[C@@H]1NC(=O)[C@@H]2CCCN2C(=O)[C@H](CC(N)=O)NC(=O)[C@@H]2CSSC[C@H](N)C(=O)N[C@H]3CSSC[C@H](NC1=O)C(=O)NC([C@@H](C)O)C(=O)NCC(=O)N[C@H](C(=O)N[C@@H](Cc1ccc(O)cc1)C(=O)O)CSSC[C@H](NC(=O)[C@H](Cc1ccc(O)cc1)NC(=O)[C@H](CCC(=O)O)NC3=O)C(=O)N2 (some centres undefined) [Linaclotide acetate] | inactive: 0.0212 | inactive: -0.694 | inactive: 1.48 |
| CC[C@H](C)[C@H](NC(=O)[C@H](CCC(=O)O)NC(=O)[C@H](CO)NC(=O)[C@H](CO)NC(=O)[C@@H](NC(=O)[C@H](CC(=O)O)NC(=O)[C@@H](NC(=O)[C@H](C)NC(=O)[C@H](C)NC(=O)[C@H](CC(=O)O)NC(=O)[C@H](CO)NC(C)=O)C(C)C)[C@@H](C)O)C(=O)N[C@H](C(=O)N[C@H](C(=O)N[C@@H](CCCCN)C(=O)N[C@@H](CC(=O)O)C(=O)N[C@@H](CC(C)C)C(=O)N[C@@H](CCCCN)C(=O)N[C@@H](CCC(=O)O)C(=O)N[C@@H](CCCCN)C(=O)N[C@@H](CCCCN)C(=O)N[C@@H](CCC(=O)O)C(=O)N[C@H](C(=O)N[C@H](C(=O)N[C@@H](CCC(=O)O)C(=O)N[C@@H](CCC(=O)O)C(=O)N[C@@H](C)C(=O)N[C@@H](CCC(=O)O)C(=O)N[C@@H](CC(N)=O)C(=O)O)C(C)C)C(C)C)[C@@H](C)O)[C@@H](C)O [Thymosin alpha 1] | inactive: -0.671 |  | inactive: 0.235 |

At a glance, part of the list above:

| SMILES | TEAD-luciferase reporter activity (compound concentration: 200 nM) | TEAD-luciferase reporter activity (compound concentration: 2 uM) | TEAD-luciferase reporter activity (compound concentration: 10 uM) |
| --- | --- | --- | --- |
| CN(C)[C@@H]1C(=O)C(C(N)=O)=C(O)C2(O)C(=O)C3=C(O)c4c(O)ccc(Cl)c4[C@@H](O)[C@H]3C[C@@H]12 (some centres undefined) [Demeclocycline] | inactive: -0.844 |  | inactive: 1.05 |
| CN(C)[C@@H]1C(=O)C(C(N)=O)=C(O)C2(O)C(=O)C3=C(O)c4c(O)ccc(Cl)c4[C@@H](O)[C@H]3C[C@@H]12 (some centres undefined) [Demeclocycline (hydrochloride)] |  | inactive: -0.371 |  |
| COc1cc(C(=S)N2CCOCC2)cc(OC)c1OC [tritiozine] | inactive: -0.0732 | inactive: -0.853 | inactive: 1.8 |
| CC(C)Cc1ccc(-c2nc(-c3ccc(CN4CC(C(=O)O)C4)c(F)c3)no2)cc1 [S1p receptor agonist 1] | inactive: 2.46 | inactive: -1.53 | inactive: 1.44 |
